Experimental data published in the supplement of paper PMC8728848.
The other results are listed elsewhere or left out.

Assays:
Assay in all cases: glycan array binding signal (z-score within array); higher = stronger binding
Conditions in all cases: glycan notation: IUPAC condensed, linker removed; mutation: R201A
[1] = target: GalNAc(b1-4)GlcNAc
Procedure, shortened: (§1)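 Glycan array data were curated from 3228 arrays in the Consortium for Functional Glycomics database and kept only where the protein sequence was available. Glycan names were converted to IUPAC-condensed notation, and columns mapping to the same glycan were averaged. The binding signal is a within-array Z-score, averaged across arrays of the same protein sequence at different concentrations or buffers and across linkers. Negative Z-scores can be read as non-binding.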

[2] = target: GalNAc(b1-4)GlcNAc(b1-2)Man
Procedure, shortened: as §1

[3] = target: GalNAc(b1-4)GlcNAc(b1-2)Man(a1-3)[GalNAc(b1-4)GlcNAc(b1-2)Man(a1-6)]Man(b1-4)GlcNAc(b1-4)GlcNAc
Procedure, shortened: as §1

[4] = target: GalNAc(b1-4)GlcNAc(b1-3)GalNAc(b1-4)GlcNAc
Procedure, shortened: as §1

[5] = target: GalNAc(b1-4)GlcNAc6S
Procedure, shortened: as §1

[6] = target: GalNAc(b1-6)GalNAc
Procedure, shortened: as §1

[7] = target: GalNAc3S(b1-4)GlcNAc
Procedure, shortened: as §1

[8] = target: GalNAc3S(b1-4)GlcNAc3S
Procedure, shortened: as §1

[9] = target: GalNAc3S(b1-4)[Fuc(a1-3)]GlcNAc
Procedure, shortened: as §1

[10] = target: GalNAc4S6S(b1-4)GlcNAc
Procedure, shortened: as §1

[11] = target: GalNAc6S(b1-4)GlcNAc
Procedure, shortened: as §1

[12] = target: Glc(a1-4)Glc
Procedure, shortened: as §1

[13] = target: Glc(a1-4)Glc(a1-4)Glc(a1-4)Glc
Procedure, shortened: as §1

[14] = target: Glc(a1-6)Glc(a1-6)Glc
Procedure, shortened: as §1

[15] = target: Glc(a1-6)Glc(a1-6)Glc(a1-6)Glc
Procedure, shortened: as §1

[16] = target: Glc(b1-4)Glc
Procedure, shortened: as §1

[17] = target: Glc(b1-6)Glc
Procedure, shortened: as §1

[18] = target: GlcA(b1-3)Gal
Procedure, shortened: as §1

[19] = target: GlcA(b1-3)GlcNAc
Procedure, shortened: as §1

[20] = target: GlcA(b1-6)Gal
Procedure, shortened: as §1

[21] = target: GlcA3S(b1-3)Gal(b1-4)GlcNAc(b1-2)Man
Procedure, shortened: as §1

[22] = target: GlcA3S(b1-3)Gal(b1-4)GlcNAc(b1-3)Gal(b1-4)Glc
Procedure, shortened: as §1

[23] = target: GlcNAc(a1-3)Gal(b1-4)GlcNAc
Procedure, shortened: as §1

[24] = target: GlcNAc(a1-4)Gal(b1-3)GlcNAc
Procedure, shortened: as §1

[25] = target: GlcNAc(a1-4)Gal(b1-4)GalNAc
Procedure, shortened: as §1

[26] = target: GlcNAc(a1-4)Gal(b1-4)GlcNAc
Procedure, shortened: as §1

[27] = target: GlcNAc(a1-4)Gal(b1-4)GlcNAc(b1-3)Gal(b1-4)Glc
Procedure, shortened: as §1

[28] = target: GlcNAc(a1-4)Gal(b1-4)GlcNAc(b1-3)Gal(b1-4)GlcNAc
Procedure, shortened: as §1

[29] = target: GlcNAc(a1-4)Gal(b1-4)GlcNAc(b1-3)Gal(b1-4)GlcNAc(b1-3)Gal(b1-4)GlcNAc
Procedure, shortened: as §1

[30] = target: GlcNAc(a1-4)Gal(b1-4)GlcNAc(b1-3)Gal(b1-4)[Fuc(a1-3)]GlcNAc(b1-3)Gal(b1-4)[Fuc(a1-3)]GlcNAc
Procedure, shortened: as §1

[31] = target: GlcNAc(a1-6)Gal(b1-4)GlcNAc
Procedure, shortened: as §1

[32] = target: GlcNAc(b1-2)Gal(b1-3)GalNAc
Procedure, shortened: as §1

[33] = target: GlcNAc(b1-2)Man(a1-3)[GlcNAc(b1-2)Man(a1-6)]Man(b1-4)GlcNAc(b1-4)GlcNAc
Procedure, shortened: as §1

[34] = target: GlcNAc(b1-2)Man(a1-3)[GlcNAc(b1-2)Man(a1-6)]Man(b1-4)GlcNAc(b1-4)[Fuc(a1-6)]GlcNAc
Procedure, shortened: as §1

[35] = target: GlcNAc(b1-2)Man(a1-3)[GlcNAc(b1-4)][GlcNAc(b1-2)Man(a1-6)]Man(b1-4)GlcNAc(b1-4)GlcNAc
Procedure, shortened: as §1

[36] = target: GlcNAc(b1-2)Man(a1-3)[GlcNAc(b1-4)][GlcNAc(b1-2)Man(a1-6)]Man(b1-4)GlcNAc(b1-4)[Fuc(a1-6)]GlcNAc
Procedure, shortened: as §1

[37] = target: GlcNAc(b1-2)[GlcNAc(b1-4)]Man(a1-3)[GlcNAc(b1-2)Man(a1-6)]Man(b1-4)GlcNAc(b1-4)GlcNAc
Procedure, shortened: as §1

B1: OS9 (Arabidopsis thaliana) (protein)
chain: MRGSHHHHHHGMASMTGGQQMGRDLYDDDDKSRLQIFPAHLVGTFSRNNREPKYKIEFLPEDSPFHPGDNLESMVMLDKHGNRFLCYLPKEEKATSGWTSSQQNISTVMMETQQLVKLKTPDELLQPLSEKCLFRQEGWWSYEFCHQKYVRQLHVEDENKIVQEFFLGTFDPEATAAFNQTVSDASTDASQRYHSHVYTNGTTCDLTGSPAEVEVRFVCAETRAMVTSITELSTCKYALTVQCPTLCKHPLFQLEKPVSHTIHCNAIPVEEDATRNKEEQAVDESPKMIADS
[1]
  glycan array binding signal (z-score): 1.25
[2]
  glycan array binding signal (z-score): -0.093
[3]
  glycan array binding signal (z-score): -1.21
[4]
  glycan array binding signal (z-score): 0.091
[5]
  glycan array binding signal (z-score): -0.261
[6]
  glycan array binding signal (z-score): -1.2
[7]
  glycan array binding signal (z-score): 2.29
[8]
  glycan array binding signal (z-score): -0.743
[9]
  glycan array binding signal (z-score): -0.553
[10]
  glycan array binding signal (z-score): 0.097
[11]
  glycan array binding signal (z-score): -0.347
[12]
  glycan array binding signal (z-score): 1.08
[13]
  glycan array binding signal (z-score): -0.427
[14]
  glycan array binding signal (z-score): 1.02
[15]
  glycan array binding signal (z-score): -1.12
[16]
  glycan array binding signal (z-score): 2.1
[17]
  glycan array binding signal (z-score): 0.913
[18]
  glycan array binding signal (z-score): -0.17
[19]
  glycan array binding signal (z-score): 1.54
[20]
  glycan array binding signal (z-score): -0.033
[21]
  glycan array binding signal (z-score): -0.713
[22]
  glycan array binding signal (z-score): 0.717
[23]
  glycan array binding signal (z-score): -0.897
[24]
  glycan array binding signal (z-score): 1.02
[25]
  glycan array binding signal (z-score): 0.085
[26]
  glycan array binding signal (z-score): -0.32
[27]
  glycan array binding signal (z-score): -0.492
[28]
  glycan array binding signal (z-score): -0.479
[29]
  glycan array binding signal (z-score): 0.447
[30]
  glycan array binding signal (z-score): -0.263
[31]
  glycan array binding signal (z-score): -0.134
[32]
  glycan array binding signal (z-score): -1.1
[33]
  glycan array binding signal (z-score): -0.533
[34]
  glycan array binding signal (z-score): 0.257
[35]
  glycan array binding signal (z-score): 0.301
[36]
  glycan array binding signal (z-score): 1.2
[37]
  glycan array binding signal (z-score): -0.032
